Data as given in PubChem BioAssay AID493014 (National Center for Advancing Translational Sciences (NCATS), 2011).
In all, about 340,000 compounds went through this assay and about 170 (0.05%) were called active. Listed are the inconclusive results; actives and inactives stand elsewhere. Calls follow the shape of the dose curve; as a rule, active = well fitted inhibition curve with a large enough effect in the signal ratio, with a control signal flat (not every such curve was filed as active); inconclusive = small, poorly fitted or top-dose-only effect, or effect the other way, or a change in a side signal; inactive = flat fitted curve, though single readings scatter; the % refers to the signal ratio. Some salts or complexes appear as unconnected parts, following the source record.
Potency is read from the fitted curve at half-maximal effect.

Assay: qHTS Assay to Find Inhibitors of Chronic Active B-Cell Receptor Signaling;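 as to activity change, negative = inhibition: plate controls were basal doxycycline-induced cells for no effect and cells given 10 µM MG132 for full effect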
Details: ABC-DLBCL IkBa-CBG/CBR reporter, luminescence ratio (green luciferase fused to IkBa over red control in TMD8 lymphoma cells), 4 h; activity change, negative = inhibition: at 46.1 µM (top of the series)
From the text: NIH Molecular Libraries Probe Production Network [MLPCN] NIH Chemical Genomics Center [NCGC] MLPCN Grant: 1 R03 DA031086-01A1 PI Name: Dr. R. Eric Davis NCGC Assay Overview: Diffuse large B-cell lymphoma (DLBCL) is the most common category of non-Hodgkin lymphoma, with ~20,000 new cases per year in the United States. DLBCL should be regarded as a collection of different neoplasms. Microarray gene expression analysis has defined two principal types of DLBCL, named for their similarity to normal B cell stages or activation states: a germinal center B-cell (GCB) type, and an activated B-cell (ABC) type. In ABC-DLBCL, a constitutive high-level activity of the NF-kappaB family of transcription factors has been observed (1) and NF-kappaB target genes are more highly expressed in ABC primary tumors than in GCB tumors. Functional studies have shown a constitutive high-level activity of the IkappaB (inhibitor of kappa-B) kinase (IKK) complex. […] Following the addition of doxycycline to induce expression of the luciferases, the green luminescence in control cultures rises only slowly because the CBG fusion partner IkappaBalpha is targeted by IKK activity for rapid degradation. In contrast, green luminescence rises rapidly in the presence of proteasome inhibitors or IKK inhibitors. The rise in red luminescence of CBR is not affected by proteasome or IKK inhibitors, and serves as normalization for cell number and nonspecific effects. […]
NCGC Assay Protocol Summary: Cells were seeded in 1536-well plates at 5000 cells/4uL in IMDM medium containing 0.5% FBS, w/o phenol red, 1% penicillin/streptomycin. […] The plates were measured on a ViewLux plate reader for green luminescence (540/20 nm filter) and red luminescence (618/8 nm filter). The green and red luminescent signals were corrected for red and green luminescence filter overlap using previously determined filter calibration constants (determined using the procedure outlined in the Promega Technical Manual; REF 4). The %Activity was determined from the ratio of corrected green/red luminescent values. […]
In the case of `COc1ccc2c(c1O)-c1c(O)c(OC)cc3c1[C@H](C2)[N+](C)(C)CC3.O=[N+]([O-])c1cc([N+](=O)[O-])c([O-])c([N+](=O)[O-])c1[O-]`, the activity change, negative = inhibition is reported as inconclusive: -0.0002%. With `COc1ccc(CN(CCCl)CCCl)cc1Cl` the Potency was inconclusive: 398 nM. For `O=[N+]([O-])c1cc([N+](=O)[O-])c(NCC2CCS(=O)(=O)C2)c([N+](=O)[O-])c1` (stereo not drawn), the activity change, negative = inhibition was inconclusive: 9.43%.
